## Results of single-concentration screens

Chains of the proteins cited; added tags and fusions are not shown. Residues count along the entry.
UniProt Q8IDJ8, 1-583: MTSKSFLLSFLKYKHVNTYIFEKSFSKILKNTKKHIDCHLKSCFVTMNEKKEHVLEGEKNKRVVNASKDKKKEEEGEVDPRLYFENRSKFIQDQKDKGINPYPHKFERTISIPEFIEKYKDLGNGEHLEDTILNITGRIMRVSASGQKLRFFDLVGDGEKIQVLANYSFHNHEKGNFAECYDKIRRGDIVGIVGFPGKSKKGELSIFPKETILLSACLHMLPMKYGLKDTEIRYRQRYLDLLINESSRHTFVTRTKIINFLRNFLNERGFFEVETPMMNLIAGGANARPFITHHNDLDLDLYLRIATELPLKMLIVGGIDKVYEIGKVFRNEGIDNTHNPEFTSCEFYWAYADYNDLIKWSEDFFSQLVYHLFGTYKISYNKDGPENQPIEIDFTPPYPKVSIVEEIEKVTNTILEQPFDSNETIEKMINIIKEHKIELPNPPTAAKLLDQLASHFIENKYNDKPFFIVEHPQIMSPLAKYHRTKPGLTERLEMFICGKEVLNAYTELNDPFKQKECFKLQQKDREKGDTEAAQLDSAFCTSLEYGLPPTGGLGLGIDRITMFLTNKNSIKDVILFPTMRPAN
UniProt P9WPC5, whole entry: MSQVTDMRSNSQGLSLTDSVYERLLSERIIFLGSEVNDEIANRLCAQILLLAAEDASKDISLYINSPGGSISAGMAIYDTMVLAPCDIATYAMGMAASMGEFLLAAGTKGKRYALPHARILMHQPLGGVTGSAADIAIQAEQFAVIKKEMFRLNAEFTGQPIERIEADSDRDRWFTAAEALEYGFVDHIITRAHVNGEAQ
UniProt P9WPC3, whole entry partner: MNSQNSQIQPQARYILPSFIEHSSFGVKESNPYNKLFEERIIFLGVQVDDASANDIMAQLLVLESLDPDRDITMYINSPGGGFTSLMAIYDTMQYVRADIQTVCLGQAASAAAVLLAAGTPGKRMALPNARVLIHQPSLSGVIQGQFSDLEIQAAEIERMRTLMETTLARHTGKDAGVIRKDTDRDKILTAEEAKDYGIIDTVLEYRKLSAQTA

PfKRS1: 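Enzyme assay of the cytosolic lysyl-tRNA synthetase in 384-well plates, read by luminescence. Target: Lysine-tRNA ligase, Plasmodium falciparum 3D7 (UniProt Q8IDJ8). Tested at 30 µM. Higher reads as stronger inhibition, judged from the few compounds that gave an IC50. Of about 69,000 compounds tested this way, about 49 (0.071%) reached 50% or more in at least one test.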
ClpP1P2: 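Protease assay of ClpP1P2, read by the AMC dye that it sets free. Target: ClpP1P2, Mycobacterium tuberculosis (UniProt P9WPC5 and UniProt P9WPC3). Tested at 50 µM. Higher reads as stronger inhibition, judged from the few compounds that gave an IC50. Most other retested compounds had strongly negative values. Of about 69,000 compounds tested this way, about 10 (0.015%) reached 50% or more in at least one test.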

Results are given as percent effect. The record does not define 0% and 100%; most values in the screen are far below 50% and negative numbers occur (in some assays of this library far below -100). Compounds were drawn at random from those tested, without regard to their results.

SMILES	PfKRS1	ClpP1P2
CCn1[nH]c(C)c2c(C(F)(F)C(F)(F)F)cc(=O)nc1-2	1.39	-7.858
O=C(NCc1ccco1)[C@H]1COC[C@H]2CN(Cc3ccccn3)C[C@H]21	-0.2239	-11.36
Cc1cc(CN2CC[C@@H]3O[C@@H](c4nnc(C)o4)C[C@H]3C2)no1	5.455	-2.715
Cc1cc(S(=O)(=O)N2C[C@H](C3CC3)[C@@H](N)C2)c(C)s1	1.257	-8.389
Cc1ccn(-c2ccc(NCc3ccccc3F)nn2)n1	-4.263	-3.699
O=C(c1cscn1)N1CCC[C@]2(C[C@H](OCC3CC3)CO2)C1	1.537	2.762
Cc1nn(CCO)c(C)c1-c1cc(C(C)(C)C)nc(N)c1C#N	7.221	-12.66
CCCSCC(=O)NCc1cccc(CN(C)CC)c1	-0.8209	-4.165
O=C(NC1CCC1)[C@@H]1CCO[C@@H]2CCN(CCc3ccccc3)C[C@H]21	3.625	10.14
COc1ccc2c(c1)OCC(CNC(=O)c1cc[nH]c1C)C2 (stereo not shown)	2.367	-6.808
CN(Cc1ccc(F)cc1)[C@@H]1CN(C(=O)c2cccs2)C[C@H]1O	1.937	12.96
CCc1nccn1C1CCCN(C(=O)CCc2nccs2)C1 (stereo not shown)	3.444	4.724
COc1ccc(C)cc1C(C)NC(=O)NCCCn1cncn1 (stereo not shown)	9.463	7.495
O=C(c1ccccc1)N1CCO[C@@H]2CN(Cc3ccc[nH]3)C[C@@H]2C1	3.792	-1.524
Cc1ccc2c(n1)N(C)CCN(Cc1cnn(C)c1)C2	2.994	3.179
CC1CCCN(C(=O)c2ccc(-c3ccco3)o2)C1 (stereo not shown)	3.989	-3.975
COc1ccc2nc(C3CC3)cc(C(=O)NCC(=O)N(C)C)c2c1	3.2	-10.18
Cc1ccc(C(=O)N2[C@@H]3CC[C@H]2CN(C)C(=O)C3)c(=O)[nH]1	6.304	0.3564
CCOc1cc(F)ccc1NC1CCN(CC(F)(F)F)C1=O (stereo not shown)	4.674	-7.823
CN(C)C(=O)c1ccc(C2CCCNC2)nc1 (stereo not shown)	1.276	9.734
Cn1ccnc1CN1CCOC(C)(C(=O)N2CCOCC2)C1 (stereo not shown)	3.358	21.15
COCCc1noc(CN(C)C2CCCN(c3cccnn3)C2)n1 (stereo not shown)	-4.373	-10.9
CCc1ccc(CN2CCC(CNC(=O)c3ccc(C)nc3)C2)nc1 (stereo not shown)	-3.199	-24.96
O=C(NCCSCc1ccc(Br)s1)C1CCCN(C(=O)c2cccs2)C1 (stereo not shown)	4.01	0.8892
Cc1nccc(NCc2cncc3c2CCN(CC2CCOC2)C3)n1 (stereo not shown)	4.499	-15.9
Cn1c2c(ccc1=O)CC(NS(C)(=O)=O)CC2 (stereo not shown)	-7.996	0.7975
Cc1noc(C)c1CN1CCn2nc(CCC(=O)N3CCCC3)cc2C1	6.821	-14.78
CC(C)CN1CCCn2nc(CNC(=O)Cc3cccc(O)c3)cc2C1	2.807	-18.16
O=S(=O)(C1CC1)N1CCC2(CCCN(c3ncc(F)cn3)C2)C1 (stereo not shown)	7.44	-1.387
O=C(NCc1ccc(CO)cc1)C1CCOc2ccccc2C1 (stereo not shown)	3.22	-13
CN(C)CCCNC(=O)c1cc(Br)c2c(c1)OCCO2	5.184	-9.653
CSc1c(CC(=O)O)n(C)c2ccccc12	0.2901	25.25
CC(=O)c1cnc(NCCc2csc(-c3cnccn3)n2)nc1C	9.801	0.4958
OC1(CNC2CCN(Cc3ccncc3)CC2)CCc2ccccc21 (stereo not shown)	7.712	3.155
Cn1ncc(NC(=O)c2noc3c2CCCC3)c1C(=O)N1CCCCC1	2.034	-4.129
CO[C@H]1[C@@H]2CC[C@H]1CN(c1nc(C)nc3sccc13)C2	7.585	5.773
COc1ccc2c(c1)nc1n2[C@@H](CNCc2cnn(C)c2)COC1	0.01223	-1.521
CC(NC(=O)CCCOc1ccc(F)cc1)c1nnc2n1CCC2 (stereo not shown)	0.4023	-19.06
O=c1c2cccc(C(F)(F)F)c2ncn1C1CCNC1 (stereo not shown)	6.998	-7.29
CC(c1nncn1C)n1cc(-c2cc(CN3CCCC3)cs2)nn1 (stereo not shown)	-5.317	-3.317
COc1ccc(C[C@@H]2CC[C@H](CN(C)C3CCN(C)CC3)O2)cc1	1.566	3.038
CCN1Cc2cc(F)ccc2N(C(=O)C2CCC2)CCC1=O	1.817	16.92
CNC(=O)[C@@H]1C[C@H]2CN(Cc3nccs3)C[C@H]2N1C	0.2642	19.08
CC(C)c1nn(C)c(N2CCOCC2)c1CNCC(=O)N(C)C	3.61	16.09
Cc1ncc(COc2ccc(N(C)S(C)(=O)=O)cc2)s1	0.3939	1.526
CC(C)(C)c1cc(CNC(=O)c2cc(COc3ccccc3)[nH]n2)[nH]n1	4.994	3.422
Cc1cccc(-c2nc(CN(Cc3cccs3)CC3CCCO3)no2)c1 (stereo not shown)	4.186	3.227
O=C(COC1CCCCC1)Nc1ccn(Cc2ccccn2)n1	5.004	-10.85
CN1CCC(CNC(=O)NCc2ccc(F)cc2)CC1	2.69	-3.88
CCc1cc(NC(C)(C)C)nc(N2CCOCC2)n1	1.565	-3.98
CN(C)C(=O)CN1CCCCC1c1nc(N)ncc1-c1ccccc1 (stereo not shown)	4.302	-0.6199
CC(C)C1Nc2ccccc2C(=O)N1CC(=O)Nc1nc2c(s1)CCC2 (stereo not shown)	-1.993	-423.7
Cc1cc(C2CCCN(CCc3ccc4c(c3)CCO4)C2)n[nH]1 (stereo not shown)	-0.6323	-3.125
Cc1cccc(-c2c[nH]c(C3CCCN3C(=O)Cn3cc(C)cn3)n2)c1 (stereo not shown)	-2.06	7.345
CC(CCN1CCCn2nc(CNS(C)(=O)=O)cc2C1)c1ccccc1 (stereo not shown)	8.314	10.65
FC(F)(F)c1ccnc(N2CCCN(Cc3ccccn3)CC2)n1	0.4216	0.9643
Cc1nn(C)c(C)c1-c1ccnc(N(C)Cc2nc(C(C)C)no2)n1	0.5548	1.277

Source: ChEMBL document CHEMBL3988442, “University of Dundee, Small-Polar-MMV Screening Library” (2021).